{"source": "PubChem BioAssay AID624297", "about": "(National Center for Advancing Translational Sciences (NCATS), 2012)", "note": "In all, about 340,000 compounds went through this assay and about 6,200 (1.8%) were called active. Inconclusive results, whose numbers are uncertain, are shown with a selection of clear calls. Calls follow the shape of the dose curve; as a rule, active = well fitted activation curve with a large enough effect; inconclusive = small, poorly fitted or top-dose-only effect; inactive = no such curve, though single readings can be large or run the other way. Potencies beside an inconclusive call are fits to weak or partial responses and may not hold up. Potency is read from the fitted curve at half-maximal effect.", "data": [{"test": "A quantitative high throughput screen for small molecules that induce DNA re-replication in SW480 colon adenocarcinoma cells; also: nearly all actives have a fitted effect of over 55% in size; as to re-replication activation: % of control where 0% means no effect.", "details": "Hoechst DNA content imaging, 48 h; re-replication activation: at 46.1 µM (top of the series) unless noted", "outline": "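Image-based read-out: total Hoechst fluorescence of nuclei (405 nm excitation, 500-530 nm emission), with hits raising the fraction of high-intensity nuclei. SW480 colon cells incubated 48 hr with compounds at 37 C.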", "values": [{"smiles": "Cn1c(Sc2ccccc2Cl)c(C=O)c2ccccc21", "Potency": "inactive"}, {"smiles": "CCOc1ccccc1/C=C/c1onc(C)c1S(=O)(=O)N1CCC(C(=O)NC(C)C)CC1", "Potency": "inconclusive: 20.6 µM [activator, single point]"}, {"smiles": "CC(C)c1ccccc1NC(=S)N1CCN(S(=O)(=O)c2cccs2)CC1", "Potency": "inactive"}, {"smiles": "CC(C)n1cc(/C=N\\NC(=O)c2cc3c(ccc4ccccc43)o2)c2ccccc21", "Potency": "inactive"}, {"smiles": "COCCCNc1nc2c(-c3ccc(C)cc3)nnn2c2ccccc12", "Potency": "inactive"}, {"smiles": "CNS(=O)(=O)c1cccc(C(=O)OCC(=O)Nc2ccc(Cl)cc2F)c1", "Potency": "inconclusive: 29.1 µM [activator, single point]"}, {"smiles": "O=C(Nc1cccc(NC(=O)c2ccccc2F)c1)c1ccccc1", "Potency": "inconclusive: 0.517 µM [activator, full curve]"}, {"smiles": "CN1CCN(CCCNC(=O)c2cc3c(=O)n(C)c4ccccc4c3s2)CC1", "Potency": "inconclusive: 29.1 µM [activator, partial curve, poor fit]"}, {"smiles": "NS(=O)(=O)c1ccc(CCNC(=O)COC(=O)/C=C/c2cc(Br)ccc2F)cc1", "Potency": "inconclusive: 29.1 µM [activator, single point]"}, {"smiles": "CCOc1ccc(C(C(=O)Nc2ccc(F)cc2)N(C(=O)Cn2nnc3ccccc32)C2CC2)cc1", "note": "(stereo unspecified)", "Potency": "inconclusive: 32.6 µM [activator, partial curve, poor fit]"}, {"smiles": "CCN(Cc1nc2ccccc2c(=O)[nH]1)C(=O)COc1ccccc1-c1ccccc1", "Potency": "inactive"}, {"smiles": "COc1cc(-c2nnc(SCC(=O)N3CCOCC3)o2)cc(OC)c1OC", "Potency": "inconclusive: 2.06 µM [activator, full curve]"}, {"smiles": "CS(=O)(=O)c1ccc(-c2sc3ccccc3c2C(=O)N2CCN(c3ccc(F)cc3)CC2)cc1", "Potency": "inactive"}, {"smiles": "Cc1cccc(NC(=O)CSc2cc(C)c(C#N)c3nc4ccccc4n23)c1", "Potency": "active: 2.91 µM"}, {"smiles": "Oc1ccc(Br)cc1/C=N/n1c(-c2ccccc2)n[nH]c1=S", "Potency": "inactive"}, {"smiles": "Cn1c(N)c(C(=O)CSc2nc(C3CC3)n(-c3ccccc3)n2)c(=O)n(C)c1=O", "Potency": "inactive"}, {"smiles": "CCn1cc(S(=O)(=O)Nc2cc(C(=O)OC)ccc2C)cn1", "Potency": "inconclusive: 29.1 µM [activator, single point]"}, {"smiles": "CCN(CC)c1ccc2cc(C=O)c(=O)oc2c1", "Potency": "inconclusive: 29.1 µM [activator, single point]"}, {"smiles": "COc1ccc(-c2nc(-c3ccccc3)nc(Cl)c2C#N)cc1", "Potency": "inconclusive: 25.9 µM [activator, single point]"}, {"smiles": "Cc1cc(C)nc(N=Nc2c(O)n(Cc3ccc(Cl)cc3)c3ccccc23)n1", "Potency": "inconclusive: 32.6 µM [activator, partial curve, poor fit]"}, {"smiles": "CCCCNc1nc(-c2ccccc2)c(C(=O)OCC)cc1C#N", "Potency": "inconclusive: 29.1 µM [activator, single point]"}, {"smiles": "CCc1nnc(NC(=O)c2ccc(S(=O)(=O)N(CC(C)C)CC(C)C)cc2)o1", "Potency": "inactive"}, {"smiles": "CC(=O)CCc1c(C)c2cccc(C)c2[nH]c1=O", "Potency": "inconclusive: 0.82 µM [activator, full curve, poor fit]"}, {"smiles": "COC(=O)N/N=C/c1ccc(-c2cc(Cl)cc(Cl)c2)o1", "Potency": "inactive"}, {"smiles": "COc1c2c(c(OC)c3c1c(=O)c1ccccc1n3C)OCO2", "Potency": "inconclusive: 9.2 µM [activator, partial curve, poor fit]"}, {"smiles": "S=C(Nc1ccc2nsnc2c1)N1CCCCCC1", "Potency": "inconclusive: 11.6 µM [activator, partial curve, poor fit]"}, {"smiles": "O=C(C[n+]1cnn(CC(=O)c2ccc(Cl)cc2Cl)c1)c1ccc([N+](=O)[O-])cc1", "Potency": "inconclusive: 23.1 µM [activator, single point]"}, {"smiles": "CCc1ccccc1OCC(=O)Nc1cccc(S(=O)(=O)NC2=NCCCCC2)c1", "Potency": "inconclusive: 25.9 µM [activator, single point]"}, {"smiles": "O=C(CCNS(=O)(=O)c1ccc2[nH]c(=O)oc2c1)Nc1cccc(Br)c1", "Potency": "inconclusive: 29.1 µM [activator, single point]"}, {"smiles": "O=C(Nc1ccc(S(=O)(=O)Nc2ccc(F)cc2)cc1)c1ccc(CN2CCOCC2)cc1", "Potency": "inconclusive: 3.26 µM [activator, single point]"}, {"smiles": "CCCCCCCCCCCCC/C=C/[C@@H](O)[C@@H](N)CO", "Potency": "inconclusive: 0.58 µM [activator, single point]"}, {"smiles": "CCOC(=O)c1c(C)oc2c(F)c(F)c(F)c(F)c2c1=O", "Potency": "inconclusive: 29.1 µM [activator, single point]"}, {"smiles": "COc1cc(NC(=O)Nn2cnnc2)cc(OC)c1OC", "Potency": "inactive"}, {"smiles": "COc1ccc2c(c1)c(C(O)CN1CCN(Cc3ccc4c(c3)OCO4)CC1)c(C)n2C", "note": "(stereo unspecified)", "re-replication activation": "inactive: -5.86% [at 9.22 µM]"}, {"smiles": "CCn1nc(C)c(/C=N/NC(=O)CSc2ccccn2)c1C", "Potency": "inconclusive: 0.366 µM [activator, partial curve, poor fit]"}, {"smiles": "CCOC(=O)C1CCCN(C(=O)C2CCN(S(=O)(=O)c3c(C)noc3/C=C/c3ccccc3F)CC2)C1", "note": "(stereo unspecified)", "Potency": "inactive"}, {"smiles": "O=[N+]([O-])c1cc(Cl)c2cccnc2c1O", "Potency": "inconclusive: 29.1 µM [activator, single point]"}, {"smiles": "Clc1ccc(-c2ccn[nH]2)cc1", "Potency": "inactive"}, {"smiles": "CCNC(=S)Nc1ccc(OCc2nc3ccccc3s2)cc1", "re-replication activation": "inactive: -13.1% [at 9.22 µM]"}, {"smiles": "C[C@H]1CN([C@@H](C)CO)C(=O)c2cccc(NC(=O)c3cnccn3)c2O[C@@H]1CN(C)S(=O)(=O)c1ccc(F)cc1", "Potency": "inconclusive: 0.146 µM [activator, full curve, poor fit]"}, {"smiles": "Cc1ccc(Cn2c(=N)c(S(=O)(=O)c3ccc(C)cc3)cc3c(=O)n4ccccc4nc32)cc1", "Potency": "inconclusive: 0.231 µM [activator, full curve, poor fit]"}, {"smiles": "CCC(C(=O)NC1CCCCC1)n1c2ccccc2c2nc(=O)cc(C)n21", "note": "(stereo unspecified)", "Potency": "inactive"}, {"smiles": "COC(=O)[C@@](C)(O)C1(C(=O)SC(C)(C)C)CC1", "Potency": "inactive"}, {"smiles": "CCOC(=O)/C(C#N)=C/c1cc2ccccc2nc1N1CCOCC1", "Potency": "inactive"}, {"smiles": "O=C1NCCCc2c1oc1ccc(O)cc21", "Potency": "inconclusive: 23.1 µM [activator, single point]"}, {"smiles": "COc1ccc2cc3cc(C(=O)NCCCN4CCOCC4)oc3nc2c1", "Potency": "inactive"}, {"smiles": "Cc1ccc(N(CCC#N)C(=O)COC(=O)C2CCN(S(=O)(=O)c3ccc(C)c(C)c3)CC2)cc1", "Potency": "inconclusive: 29.1 µM [activator, partial curve, poor fit]"}, {"smiles": "CCCCCn1nc(-c2ccccc2)c2nc3ccccc3nc21", "Potency": "inconclusive: 18.4 µM [activator, single point]"}, {"smiles": "COc1cc(/C=C/c2ccc3c(Br)cc(Br)c(O)c3n2)ccc1O", "Potency": "inconclusive: 18.4 µM [activator, partial curve, poor fit]"}, {"smiles": "CC(C)(C)OC(=O)CC12CCCCC1NC(=O)O2", "note": "(stereo unspecified)", "Potency": "inactive"}, {"smiles": "COc1ccc(CCn2c(=N)c(C(=O)NCC3CCCO3)cc3c(=O)n4cccc(C)c4nc32)cc1", "note": "(stereo unspecified)", "Potency": "active: 5.8 µM"}, {"smiles": "O=C(Cn1nc(C(F)(F)F)c2c1CCC2)N1CCN(c2ccccc2)CC1", "Potency": "inactive"}, {"smiles": "O=C(COc1ncnc2ccccc12)N1CCN(S(=O)(=O)c2ccccc2)CC1", "Potency": "inconclusive: 29.1 µM [activator, single point]"}, {"smiles": "CS/C(N)=N/N=C/c1cc(C)ccc1O", "Potency": "active: 14.6 µM"}, {"smiles": "Cc1ccc(N(C(=O)c2csnn2)C(C(=O)NC(C)(C)C)c2ccncc2)cc1", "note": "(stereo unspecified)", "Potency": "active: 18.4 µM"}, {"smiles": "O=C(N/N=C/c1c(O)ccc2ccccc12)c1cccc(C(F)(F)F)c1", "Potency": "inconclusive: 0.82 µM [activator, full curve, poor fit]"}, {"smiles": "O=C(COc1ccccc1Cl)Nc1ccc(N2CCN(C(=O)c3ccccc3)CC2)cc1", "Potency": "inconclusive: 11.6 µM [activator, partial curve, poor fit]"}, {"smiles": "Cc1ccccc1C(=O)Nc1ccc(Cl)cn1", "Potency": "inconclusive: 18.4 µM [activator, single point]"}, {"smiles": "COc1cc(C(=O)Nc2ccc(C)cn2)c([N+](=O)[O-])cc1OC", "Potency": "inactive"}, {"smiles": "O=C(O)CCCC(=O)N1CCN(c2nc(-c3ccccc3)c3ccccc3n2)CC1", "Potency": "inconclusive: 4.11 µM [activator, partial curve, poor fit]"}, {"smiles": "COc1ccc2c(=O)cc(-c3ccccc3F)oc2c1", "Potency": "inactive"}, {"smiles": "COc1cccc(CNC(=O)CCC2CCCN(C(=O)c3cc4ccccc4o3)C2)c1", "note": "(stereo unspecified)", "Potency": "inconclusive: 17.8 µM [activator, single point]"}, {"smiles": "COCCN1C(=O)/C(=C/c2ccc(Oc3ccc([N+](=O)[O-])cn3)c(OC)c2)SC1=Nc1ccccc1", "Potency": "inactive"}, {"smiles": "CN(CC(=O)Nc1ccc(N2CCOCC2)cc1)C(=O)CCCOc1ccc(Cl)cc1Cl", "Potency": "inconclusive: 6.51 µM [activator, partial curve, poor fit]"}, {"smiles": "CNC(=S)Nc1ccc(-c2nc3ccc(C)cc3s2)cc1", "Potency": "inconclusive: 29.1 µM [activator, single point]"}, {"smiles": "CCc1cc2c(SCC(=O)NCC3CCCO3)ncnc2s1", "note": "(stereo unspecified)", "Potency": "inactive"}, {"smiles": "N#Cc1c(NC(=O)CSc2ncc(-c3ccccc3)n2CC2CCCO2)sc2c1CCCC2", "note": "(stereo unspecified)", "Potency": "inactive"}, {"smiles": "Cc1ccccc1OCC(=O)Nc1ccc(Cc2ccncc2)cc1", "Potency": "inactive"}, {"smiles": "O=C(Cn1ncn2c(cc3ccccc32)c1=O)NCCCc1ccccc1", "Potency": "inconclusive: 32.6 µM [activator, single point]"}, {"smiles": "C/C(CC(=O)Nc1ccc(N(C)C)cc1)=N\\NC(=O)c1ccccc1F", "Potency": "inconclusive: 3.66 µM [activator, full curve, poor fit]"}, {"smiles": "Cc1nc2ccccc2c(C)c1CC(=O)N(C)CC(=O)Nc1cccc(F)c1", "Potency": "inconclusive: 20.6 µM [activator, partial curve, poor fit]"}]}]}
